Laboratory results taken from PubChem BioAssay AID2685 (National Center for Advancing Translational Sciences (NCATS), 2010).
The other results are listed elsewhere or left out. These are further read-outs of the screen, such as a control signal, another cell line or another target. No call is given for them. Compounds called inactive in the main read-out are mostly missing here. Words in brackets tell the shape of the fitted curve; partial curves, single points and poor fits give uncertain potencies.

Assay: qHTS Assay for Lipid Storage Modulators in Drosophila S3 Cells;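 as to cell number change: cells counted by Cell Tracker Red CMTPX staining in the red channel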
Conditions: BODIPY lipid droplet fluorescence, 18-24 h; for cell number change: measured here: cell count max response, cells fed with added oleic acid
Summary of the method: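 Drosophila S3 cells loaded with oleic acid (400 uM, as added) and compounds at several concentrations; lipid droplets imaged by 488-nm laser-scanning cytometry, 500–530 nm intensity and object ratio to cell channel. Percent activity normalized to 20 uM Triacsin C.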

[1] = measured here: lipid fluorescence (Fed channel) AC50, cells fed with added oleic acid
[2] = measured here: cell number channel AC50, cells fed with added oleic acid

Compound | cell number change [%] | AC50 [1] | AC50 [2]
C/C=C/Cn1c(SCCCc2ccccc2)nc2c1c(=O)[nH]c(=O)n2C | 10.8 | 4.61 µM [rising, full curve] | –
NS(=O)(=O)c1cccc(NC(=O)CCSc2ccccc2Cl)c1 | 16.5 | 2.06 µM [rising, partial curve] | –
Cc1ccc(C(=O)N(C)CC(=O)Nc2ccc(N3CCOCC3)cc2)s1 | 50 | – | 20.6 µM [rising, single point]
O=C(Cn1c(NCCO)nc2ccccc21)N1CCN(Cc2ccccc2)CC1 | – | 0.13 µM [rising, full curve] | 0.164 µM [rising, full curve]
COC(=O)CCCC(=O)N1CCCC(CNS(=O)(=O)c2ccc(OC)cc2)C1 (configuration not stated) | 8.54 | 0.0164 µM [rising, full curve, poor fit] | –
COc1cc(CNc2ccc3[nH]c(=O)[nH]c3c2)ccc1OCc1ccc(F)cc1 | – | 8.2 µM [rising, partial curve] | 7.31 µM [falling, single point]
CC1(C)CC(=O)C(C2=NC(C)(C)Cc3ccccc32)=C(O)C1 | -8.71 | – | –
COc1ccc(/C(C)=C2/SC(=S)N(CCC(=O)O)C2=O)cc1 | 87.1 | – | 20.6 µM [rising, partial curve]
O=C(c1ccc(Cl)cc1)N(Cc1ccc(Br)cc1)N1C(=O)CCC1=O | 24.1 | 2.59 µM [rising, partial curve, poor fit] | –
CSc1ccc(CCNC(=O)C2CCN(c3nnc(-n4cccc4)s3)CC2)cc1 | 10.6 | – | –
O=C(NS(=O)(=O)c1ccccc1Cl)c1ccc[nH]1 | -22.2 | 0.58 µM [falling, full curve] | –
C(=N\n1cnnc1)/c1ccc(OCc2cccc3ccccc23)cc1 | 36.5 | 0.206 µM [rising, full curve, poor fit] | 29.1 µM [rising, single point]
CN1Cc2cc(C(=O)c3ccccc3O)cnc2NC1=O | 15.9 | – | –
CCOC(=O)COc1c(/C=N\O)cc(Cl)cc1OC | -93.3 | 29.1 µM [falling, partial curve] | –
N#CC1(NC(=O)CSc2n[nH]c(-c3ccccc3)n2)CCCCC1 | 41.9 | 18.4 µM [falling, single point] | 10.3 µM [rising, partial curve, poor fit]
CCN1CCN(CCCNC(=O)c2csc3c2CCCCC3)CC1 | 8.88 | 2.31 µM [falling, partial curve, poor fit] | –
Cc1nccn1CCOc1ccccc1Cl | 30.9 | – | 0.411 µM [rising, full curve, poor fit]
C=C(C(=O)Oc1ccccc1C(C)(C)C)c1ccccc1 | -49.3 | 1.03 µM [falling, single point] | 8.2 µM [falling, single point]
COc1ccc(/C=C2\N=C(C)N(c3ccc(C(=O)O)cc3)C2=O)cc1OC | 98.3 | 5.8 µM [falling, single point] | 29.1 µM [rising, single point]
COC(=O)c1ccccc1NC(=O)c1cn(-c2ccc(C)c(C)c2)c(=O)c2ccccc12 | -7.66 | – | –

Compound | cell number change [%] | AC50 [1] | AC50 [2]
CC(C)CC(=O)Nc1cccc(NC(=O)c2ccccc2Cl)c1 | – | 0.146 µM [rising, partial curve, poor fit] | –
CC(C)(C)c1ccc(C(=O)C2CCCN(C(=O)c3ccccn3)C2)cc1 (configuration not stated) | -23.9 | – | –
Cc1ccc(OCCNC(=O)/C=C/c2ccccc2)cc1 | -49 | 29.1 µM [falling, single point] | 29.1 µM [falling, single point]
CN(C)C(=O)COc1ccc(C(=O)/C=C/c2cccnc2)cc1 | -5.71 | – | –
Cc1cc(C(=O)COc2ccc([N+](=O)[O-])cc2)c(C)n1C1CC1 | -39.5 | 0.116 µM [falling, full curve, poor fit] | 29.1 µM [falling, single point]
O=C1CCCCCN1Cc1ccccc1 | – | 0.13 µM [rising, full curve, poor fit] | 0.13 µM [rising, full curve, poor fit]
CNC(=S)Nc1ccc(OC(F)(F)F)cc1 | 20.2 | 0.259 µM [falling, single point] | –
O=C1c2cccc3c([N+](=O)[O-])ccc(c23)C(=O)N1c1ccc(Cl)cn1 | -96.2 | 29.1 µM [falling, single point] | 29.1 µM [falling, single point]
CCCN1C(=O)c2cc(C(=O)Nc3ccccc3OC)ccc2C1Nc1ccccc1OC (configuration not stated) | -61.7 | 29.1 µM [falling, single point] | 29.1 µM [falling, single point]
CS/C(=C(/C#N)S(=O)(=O)c1ccc(Cl)cc1)N1CCOCC1 | 15.1 | 6.51 µM [rising, single point] | –
COc1ccc(NC(=O)c2cccc(N3C(=O)C4C5C=CC(C5)C4C3=O)c2)cc1Cl (configuration not stated) | 8.73 | 29.1 µM [rising, single point] | –
COc1ccccc1C1CC(=O)n2c(nc(-c3ccccc3)c2-c2ccccc2)S1 (configuration not stated) | 127 | 11.6 µM [rising, partial curve] | 23.1 µM [rising, single point]
CN(Cc1c(F)cccc1Cl)C(=O)c1cnc2ccccc2n1 | 11.7 | 0.651 µM [falling, full curve, poor fit] | –
CCOC(=O)N1CCN(C(=O)c2ccc(N(Cc3ccc(Cl)cc3)S(C)(=O)=O)cc2)CC1 | – | 20.6 µM [falling, single point] | –
Cc1nn(C)cc1S(=O)(=O)NCc1ccc2c(c1)OCO2 | 18.2 | 3.66 µM [falling, single point] | –
O=C(Cn1cc(C(=O)C2CCCCC2)c2ccccc21)NCC1CCCO1 (configuration not stated) | 2.64 | – | –
CCOC(=O)c1sc(Nc2ccc(Br)cc2)nc1C | -40 | 32.6 µM [falling, single point] | 29.1 µM [falling, single point]
CCCNC(=O)c1ccccc1C(=O)NCCC | -6.92 | 9.2 µM [falling, partial curve, poor fit] | –
CCn1cc(C(=O)N2CCN(C3CCCCC3)CC2)c2cc(OC)c(OC)cc2c1=O | 139 | – | 9.2 µM [rising, partial curve]
Cc1ccc(OCCC(=O)OCC(=O)NC(=O)c2ccccc2)cc1 | 22 | – | –

Compound | cell number change [%] | AC50 [1] | AC50 [2]
CCOc1ccc(N(CC(=O)NC2CCCCC2)C(=O)CCC(=O)Nc2ccccn2)cc1 | 15.4 | – | –
Fc1ccc(-c2nnc(-c3ccc(Cl)cc3)o2)cc1 | 1.08 | – | 0.058 µM [falling, full curve, poor fit]
CC(C(=O)N1CCCC1)N1CCN(S(=O)(=O)c2ccc(C(C)(C)C)cc2)CC1 (configuration not stated) | -0.129 | 29.1 µM [rising, single point] | –
CCCCC(=O)Nc1ccc(S(=O)(=O)Nc2nccc(C)n2)cc1 | -43.9 | 29.1 µM [falling, single point] | 29.1 µM [falling, single point]
CCCNC(=O)c1ccc(N2CCC3(CC2)CC(c2ccccc2)=NO3)c(NC(=O)c2ccccc2)c1 | 41 | 29.1 µM [falling, single point] | 18.4 µM [rising, single point]
Cc1ccc(N(C(=O)c2ccccn2)C2(C(=O)NC3CCCC3)CCCCC2)cc1 | -95.8 | 3.66 µM [falling, full curve] | 16.4 µM [falling, partial curve]
COc1ccc(C2CC(c3cccs3)=NN2C(=O)CSc2nc(=O)n3ccccc3n2)cc1 (configuration not stated) | 42.7 | – | –
O=C(NCC1CCCO1)C1CCCN(S(=O)(=O)c2ccc(F)cc2)C1 (configuration not stated) | 10.6 | 29.1 µM [falling, single point] | –
CCN(Cc1ccc2c(c1)OCCO2)C(=O)CN1C(=O)NC2(CCCCC2)C1=O | -4.42 | 29.1 µM [rising, single point] | –
Nc1nc2c(c(=O)[nH]1)C(c1cccc3ccccc13)C1=C(N2)c2ccccc2C1=O (configuration not stated) | -42.3 | 8.2 µM [falling, partial curve] | 20.6 µM [falling, single point]
CCN(CC)S(=O)(=O)c1ccc(C(=O)NCc2cccs2)cc1 | -15.1 | 0.00517 µM [falling, full curve, poor fit] | 0.0291 µM [falling, full curve]
O=C(O)CCCC(=O)Nc1ccc(-n2ccc(C(F)(F)F)n2)cc1 | -19.4 | – | –
Cc1ccc(S(=O)(=O)N2CCCCC2)cc1NC(=O)COC(=O)C1(C)CC1(Cl)Cl (configuration not stated) | -14.3 | – | –
CCn1cc(Cl)c(C(=O)Nc2ccccc2C(N)=O)n1 | -9.6 | 0.259 µM [rising, full curve, poor fit] | –
CC1CCC(NC(=O)CCS(=O)(=O)c2ccc3c(c2)NC(=O)CO3)CC1 (configuration not stated) | 16.4 | – | –
CCC(C)N1CC23C=CC(O2)C(C(=O)OC)C3C1=O (configuration not stated) | -2.7 | – | –
CCOC(=O)C1=C(CCc2ccccc2)NC(=O)NC1c1ccc2ccccc2c1 (configuration not stated) | 8.38 | 29.1 µM [falling, single point] | –
CCOc1cc2c3c(c1)C(C)=CC(C)(C)N3C(=O)C2=O | -0.653 | 4.11 µM [falling, full curve, poor fit] | –
CCOCCCNC(=O)c1cc(Cl)c(NC(=O)C2=C(C)OCCS2)cc1OC | 10.6 | 0.116 µM [rising, full curve, poor fit] | –

Random excerpt: 5 compounds from above
Compound | cell number change [%] | AC50 [1] | AC50 [2]
CC1CCC(NC(=O)CCS(=O)(=O)c2ccc3c(c2)NC(=O)CO3)CC1 (configuration not stated) | 16.4 | – | –
COc1ccc(C2CC(c3cccs3)=NN2C(=O)CSc2nc(=O)n3ccccc3n2)cc1 (configuration not stated) | 42.7 | – | –
CC(C(=O)N1CCCC1)N1CCN(S(=O)(=O)c2ccc(C(C)(C)C)cc2)CC1 (configuration not stated) | -0.129 | 29.1 µM [rising, single point] | –
CCOC(=O)C1=C(CCc2ccccc2)NC(=O)NC1c1ccc2ccccc2c1 (configuration not stated) | 8.38 | 29.1 µM [falling, single point] | –
CCN(Cc1ccc2c(c1)OCCO2)C(=O)CN1C(=O)NC2(CCCCC2)C1=O | -4.42 | 29.1 µM [rising, single point] | –
